# Measured data: PubChem BioAssay AID1259308 (NCATS, 2017)
# Purpose: 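Knock-downs that increase output of a recombinant reporter protein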 (primary screen)
# System: human HEK293 embryonic kidney cells stably expressing firefly luciferase (HEK-CMV-Luc2-Hygro)
# Knock-down reagent: single siRNA against human genes, 0.8 pmol siRNA per well
# Timing: 72 h
# Read-out: 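Luciferase light (ONE-Glo) measured on one replicate plate set and viability (CellTiter-Glo) on the other, scaled to a negative control siRNA, with robust z-scores and luciferase per cell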
# Scale: total luciferase, z-score and total luciferase, % of control: higher = more reporter protein produced
# Active means: 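An siRNA counts as active if its total luciferase robust z-score exceeds 3; genes with two or more such siRNAs out of three were retested with fresh siRNAs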
# Calls: active = raised luciferase; inactive = no rise
# In all, the deposit lists about 59,000 reagents; this is a random part of them. About 1,510 of them (2.6%) were called active. 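Calls use total luciferase alone and ignore viability, so some active siRNAs may act by altering cell number.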 The numbers tell different reagents against one gene apart. Further read-outs or replicates are left out here.
gene symbol,siRNA no.,"total luciferase, z-score","total luciferase, % of control",activity call
LAT (linker for activation of T cells),1,0.865,99.1,inactive
LAT (linker for activation of T cells),2,-0.829,65.4,inactive
LAT (linker for activation of T cells),3,0.076,83.4,inactive
MSANTD1 (Myb/SANT DNA binding domain containing 1),1,1.48,111,inactive
MSANTD1 (Myb/SANT DNA binding domain containing 1),2,0.859,99,inactive
MSANTD1 (Myb/SANT DNA binding domain containing 1),3,-1.47,52.7,inactive
FGF20 (fibroblast growth factor 20),1,1.92,120,inactive
FGF20 (fibroblast growth factor 20),2,0.273,87.3,inactive
FGF20 (fibroblast growth factor 20),3,-1.11,59.9,inactive
DEF8 (differentially expressed in FDCP 8 homolog),1,3.19,145,active
DEF8 (differentially expressed in FDCP 8 homolog),2,-0.228,77.4,inactive
DEF8 (differentially expressed in FDCP 8 homolog),3,0.563,93.1,inactive
"PRNT (prion locus lncRNA, testis expressed)",1,-1.48,52.5,inactive
"PRNT (prion locus lncRNA, testis expressed)",2,0.408,90,inactive
"PRNT (prion locus lncRNA, testis expressed)",3,0.509,92,inactive
GPR45 (G protein-coupled receptor 45),1,1.47,111,inactive
GPR45 (G protein-coupled receptor 45),2,1.04,103,inactive
GPR45 (G protein-coupled receptor 45),3,1.7,116,inactive
IFI6 (interferon alpha inducible protein 6),1,0.0963,83.8,inactive
IFI6 (interferon alpha inducible protein 6),2,1.82,118,inactive
IFI6 (interferon alpha inducible protein 6),3,0.336,88.6,inactive
AHI1 (Abelson helper integration site 1),1,0.583,93.5,inactive
AHI1 (Abelson helper integration site 1),2,0.878,99.3,inactive
AHI1 (Abelson helper integration site 1),3,-0.945,63.1,inactive
TBKBP1 (TBK1 binding protein 1),1,-1.05,61,inactive
TBKBP1 (TBK1 binding protein 1),2,0.299,87.8,inactive
TBKBP1 (TBK1 binding protein 1),3,-0.54,71.1,inactive
UBE2D1 (ubiquitin conjugating enzyme E2 D1),1,-0.197,78,inactive
UBE2D1 (ubiquitin conjugating enzyme E2 D1),2,0.362,89.1,inactive
UBE2D1 (ubiquitin conjugating enzyme E2 D1),3,-0.368,74.6,inactive

Ordered by “total luciferase, % of control” (lowest first): some entries from above
gene symbol,siRNA no.,"total luciferase, z-score","total luciferase, % of control",activity call
"PRNT (prion locus lncRNA, testis expressed)",1,-1.48,52.5,inactive
"PRNT (prion locus lncRNA, testis expressed)",2,0.408,90,inactive
"PRNT (prion locus lncRNA, testis expressed)",3,0.509,92,inactive
DEF8 (differentially expressed in FDCP 8 homolog),3,0.563,93.1,inactive

Continued.
gene symbol,siRNA no.,"total luciferase, z-score","total luciferase, % of control",activity call
"ELOA3P (elongin A3, pseudogene)",1,0.185,85.6,inactive
"ELOA3P (elongin A3, pseudogene)",2,0.642,94.7,inactive
"ELOA3P (elongin A3, pseudogene)",3,4.87,179,active
"MT1CP (metallothionein 1C, pseudogene)",1,0.58,93.4,inactive
"MT1CP (metallothionein 1C, pseudogene)",2,3.44,150,active
"MT1CP (metallothionein 1C, pseudogene)",3,-0.259,76.7,inactive
MTMR1 (myotubularin related protein 1),1,-0.588,70.2,inactive
MTMR1 (myotubularin related protein 1),2,-0.517,71.6,inactive
MTMR1 (myotubularin related protein 1),3,-0.844,65.1,inactive
SEMA4F (ssemaphorin 4F),1,-0.505,71.8,inactive
SEMA4F (ssemaphorin 4F),2,-0.254,76.8,inactive
SEMA4F (ssemaphorin 4F),3,0.253,86.9,inactive
CASC16 (cancer susceptibility 16),1,0.753,96.9,inactive
CASC16 (cancer susceptibility 16),2,0.91,100,inactive
CASC16 (cancer susceptibility 16),3,-0.702,67.9,inactive
COX16 (cytochrome c oxidase assembly factor COX16),1,0.876,99.3,inactive
COX16 (cytochrome c oxidase assembly factor COX16),2,1.5,112,inactive
COX16 (cytochrome c oxidase assembly factor COX16),3,0.121,84.3,inactive
CFAP47 (cilia and flagella associated protein 47),1,-1.14,59.2,inactive
CFAP47 (cilia and flagella associated protein 47),2,-1.79,46.3,inactive
CFAP47 (cilia and flagella associated protein 47),3,-0.211,77.7,inactive
CFAP47 (cilia and flagella associated protein 47),4,2.42,130,inactive
CFAP47 (cilia and flagella associated protein 47),5,-0.00612,81.8,inactive
CFAP47 (cilia and flagella associated protein 47),6,0.778,97.4,inactive
CFAP47 (cilia and flagella associated protein 47),7,-1.19,58.2,inactive
CFAP47 (cilia and flagella associated protein 47),8,-0.54,71.1,inactive
CFAP47 (cilia and flagella associated protein 47),9,-1.32,55.7,inactive
SPINK1 (serine peptidase inhibitor Kazal type 1),1,0.495,91.7,inactive
SPINK1 (serine peptidase inhibitor Kazal type 1),2,-0.472,72.5,inactive
SPINK1 (serine peptidase inhibitor Kazal type 1),3,-0.825,65.5,inactive
ALG1L2,1,0.511,92.1,inactive
ALG1L2,2,0.0749,83.4,inactive
ALG1L2,3,2.53,132,inactive
CPNE3 (copine 3),1,0.554,92.9,inactive
CPNE3 (copine 3),2,-0.903,63.9,inactive
CPNE3 (copine 3),3,0.395,89.7,inactive
FAM167B (family with sequence similarity 167 member B),1,1.16,105,inactive
FAM167B (family with sequence similarity 167 member B),2,0.0706,83.3,inactive
FAM167B (family with sequence similarity 167 member B),3,-0.147,79,inactive
VSX1 (visual system homeobox 1),1,-2,42.2,inactive
VSX1 (visual system homeobox 1),2,0.346,88.8,inactive
VSX1 (visual system homeobox 1),3,0.482,91.5,inactive
RTCA (RNA 3'-terminal phosphate cyclase),1,0.989,102,inactive
RTCA (RNA 3'-terminal phosphate cyclase),2,1.5,112,inactive
RTCA (RNA 3'-terminal phosphate cyclase),3,0.28,87.5,inactive
